Data reported in article PMC9038691, “A structural exposé of noncanonical molecular reactivity within the protein tyrosine phosphatase WPD loop” (Nature communications, 2022).
No constants are given. Whether binding was seen depends on the method and setting.

Protein sequences, listed by entry. Tags and fused reporters are not part of them. Residues count along the entry.
UniProt Q9ZVN4, residues 49-215: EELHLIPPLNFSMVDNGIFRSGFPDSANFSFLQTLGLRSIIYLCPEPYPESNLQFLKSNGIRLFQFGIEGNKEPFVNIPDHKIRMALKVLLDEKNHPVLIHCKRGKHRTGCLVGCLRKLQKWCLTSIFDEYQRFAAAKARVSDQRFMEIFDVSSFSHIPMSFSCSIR

Molecular target: AtPFA-DSP1^49–215 (Arabidopsis thaliana Plant and Fungi Atypical Dual Specificity Phosphatase 1, core catalytic domain) (Arabidopsis thaliana) (UniProt Q9ZVN4)
Assay: SEC; gel filtration of the purified AtPFA-DSP1^49–215 construct in solution (Supplementary Fig. 2d); both purified

- binding: no binding
Substance: AtPFA-DSP1^49–215 (Arabidopsis thaliana Plant and Fungi Atypical Dual Specificity Phosphatase 1, core catalytic domain) (from UniProt Q9ZVN4 49-215) (domain or fragment)
